Earlier results in patent US20230241076A1, “HISTONE-ACETYLATION-MODULATING AGENTS FOR THE TREATMENT AND PREVENTION OF ORGAN INJURY” (The Regents of the University of Michigan, priority 2020, published 2023).
At least one structure is not confirmed: it was looked up by name or label, or the drawing left a doubt.

Test system: ischemia reperfusion (IR) rats
Settings: cited from earlier work

With `CC(=O)C(=O)O` [pyruvate] as the compound, how does the heart function read?
Its heart function is “improve heart function”.
